Experimental findings from the supplement of paper PMC11546906 are described below.

The structures appear in SMILES notation. Where a name gives a salt, the structure may show the parent alone. The list shows a part of the results. This data set is noisy: repeats of one test often differ as much as different tests do.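 FDA-approved drugs were each paired with colistin at one-eighth its MIC and screened against a multidrug-resistant, mcr-1-positive clinical E. coli isolate, with OD600 read after 24 h. Drug-free bacteria served as growth control, plain broth as blank. Combinations were active if OD600 dropped below 0.2.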

This assay has as its system Escherichia coli 42 (mcr-1-positive clinical isolate). Nature of the assay: OD600 after 24 h growth with compound plus colistin (absorbance units (OD600)); higher = more bacterial growth (less inhibition). To be noted: first compound 25 µM; colistin concentration 0.5 ug/mL; incubation time 24 h; 37 °C.
Consider `CCCNC(C)C(=O)Nc1c(C)csc1C(=O)OC` (centres undefined) [Articaine hydrochloride] + CCC(C)CCCC(=O)N[C@@H](CCN)C(=O)N[C@H](C(=O)N[C@@H](CCN)C(=O)N[C@H]1CCNC(=O)[C@H]([C@@H](C)O)NC(=O)[C@H](CCN)NC(=O)[C@H](CCN)NC(=O)[C@H](CC(C)C)NC(=O)[C@@H](CC(C)C)NC(=O)[C@H](CCN)NC1=O)[C@@H](C)O [colistin], for which the OD600 is inactive: 1.08.

`COc1c(N2CCNC(C)C2)c(F)cc2c(=O)c(C(=O)O)cn(C3CC3)c12` (centres undefined) [Gatifloxacin] + CCC(C)CCCC(=O)N[C@@H](CCN)C(=O)N[C@H](C(=O)N[C@@H](CCN)C(=O)N[C@H]1CCNC(=O)[C@H]([C@@H](C)O)NC(=O)[C@H](CCN)NC(=O)[C@H](CCN)NC(=O)[C@H](CC(C)C)NC(=O)[C@@H](CC(C)C)NC(=O)[C@H](CCN)NC1=O)[C@@H](C)O [colistin]: the OD600 is inactive: 0.703.

For the molecule `C[C@@H](NCCCc1cccc(C(F)(F)F)c1)c1cccc2ccccc12` [Cinacalcet hydrochloride] + CCC(C)CCCC(=O)N[C@@H](CCN)C(=O)N[C@H](C(=O)N[C@@H](CCN)C(=O)N[C@H]1CCNC(=O)[C@H]([C@@H](C)O)NC(=O)[C@H](CCN)NC(=O)[C@H](CCN)NC(=O)[C@H](CC(C)C)NC(=O)[C@@H](CC(C)C)NC(=O)[C@H](CCN)NC1=O)[C@@H](C)O [colistin], the OD600 is active: 0.052.

Consider `COc1ccc2cc([C@H](C)C(=O)O)ccc2c1` [Naproxen sodium] + CCC(C)CCCC(=O)N[C@@H](CCN)C(=O)N[C@H](C(=O)N[C@@H](CCN)C(=O)N[C@H]1CCNC(=O)[C@H]([C@@H](C)O)NC(=O)[C@H](CCN)NC(=O)[C@H](CCN)NC(=O)[C@H](CC(C)C)NC(=O)[C@@H](CC(C)C)NC(=O)[C@H](CCN)NC1=O)[C@@H](C)O [colistin], for which the OD600 is inactive: 1.05.

`CO[C@H]1/C=C/O[C@@]2(C)Oc3c(C)c(O)c4c(O)c(c5c(nc6cc(C)ccn65)c4c3C2=O)NC(=O)/C(C)=C\C=C\[C@H](C)[C@H](O)[C@@H](C)[C@@H](O)[C@@H](C)[C@H](OC(C)=O)[C@@H]1C` [Rifaximin] + CCC(C)CCCC(=O)N[C@@H](CCN)C(=O)N[C@H](C(=O)N[C@@H](CCN)C(=O)N[C@H]1CCNC(=O)[C@H]([C@@H](C)O)NC(=O)[C@H](CCN)NC(=O)[C@H](CCN)NC(=O)[C@H](CC(C)C)NC(=O)[C@@H](CC(C)C)NC(=O)[C@H](CCN)NC1=O)[C@@H](C)O [colistin]: the OD600 was active: 0.05.

With `CC(C)/N=c1\cc2n(-c3ccc(Cl)cc3)c3ccccc3nc-2cc1Nc1ccc(Cl)cc1` [Clofazimine] + CCC(C)CCCC(=O)N[C@@H](CCN)C(=O)N[C@H](C(=O)N[C@@H](CCN)C(=O)N[C@H]1CCNC(=O)[C@H]([C@@H](C)O)NC(=O)[C@H](CCN)NC(=O)[C@H](CCN)NC(=O)[C@H](CC(C)C)NC(=O)[C@@H](CC(C)C)NC(=O)[C@H](CCN)NC1=O)[C@@H](C)O [colistin], the OD600 is inactive: 1.15.

As for `CC(COc1ccccc1)N(CCCl)Cc1ccccc1` (centres undefined) [Phenoxybenzamine hydrochloride] + CCC(C)CCCC(=O)N[C@@H](CCN)C(=O)N[C@H](C(=O)N[C@@H](CCN)C(=O)N[C@H]1CCNC(=O)[C@H]([C@@H](C)O)NC(=O)[C@H](CCN)NC(=O)[C@H](CCN)NC(=O)[C@H](CC(C)C)NC(=O)[C@@H](CC(C)C)NC(=O)[C@H](CCN)NC1=O)[C@@H](C)O [colistin], the OD600 is inactive: 0.977.

Consider `C[C@@H](Oc1cc(-c2cnn(C3CCNCC3)c2)cnc1N)c1c(Cl)ccc(F)c1Cl` [Crizotinib] + CCC(C)CCCC(=O)N[C@@H](CCN)C(=O)N[C@H](C(=O)N[C@@H](CCN)C(=O)N[C@H]1CCNC(=O)[C@H]([C@@H](C)O)NC(=O)[C@H](CCN)NC(=O)[C@H](CCN)NC(=O)[C@H](CC(C)C)NC(=O)[C@@H](CC(C)C)NC(=O)[C@H](CCN)NC1=O)[C@@H](C)O [colistin], for which the OD600 was inactive: 0.969.

On to `Cc1c(O)c(=O)ccn1C` [Deferiprone] + CCC(C)CCCC(=O)N[C@@H](CCN)C(=O)N[C@H](C(=O)N[C@@H](CCN)C(=O)N[C@H]1CCNC(=O)[C@H]([C@@H](C)O)NC(=O)[C@H](CCN)NC(=O)[C@H](CCN)NC(=O)[C@H](CC(C)C)NC(=O)[C@@H](CC(C)C)NC(=O)[C@H](CCN)NC1=O)[C@@H](C)O [colistin], for which the OD600 was inactive: 1.04.
